From US6414029B1, “Vanadium complexes of monohydroxamates and pharmaceutical compositions comprising them” (priority 1997, dated 2002)

Key:
rat adipocytes [1] = settings: Glu(γ)HXM 100 μM; staurosporine 30 min at 37° C. (FIG. 7)
rat adipocytes [2] = settings: cited from earlier work

Compound: CN[C@@H]1C[C@H]2O[C@@](C)([C@@H]1OC)n1c3ccccc3c3c4c(c5c6ccccc6n2c5c31)C(=O)NC4 [Staurosporine]
- Inhibition of Glu(γ)HXM-evoked lipogenesis, in words (rat adipocytes [1]): in a dose-dependent manner
- Inhibition of vanadate-stimulated versus insulin-stimulated lipogenesis, in words (rat adipocytes [2]): preferentially inhibits the effect of vanadate
